Our source for the outcome and AC50 values is PubChem BioAssay (EPA / NIEHS).

This list holds what a sample rich in hits left over. Results filed as inconclusive are left out. Activity calls are given as the source filed them. Rule for the calls: active = hit-call score of the fitted dose curve at least 0.9, where 1 is the maximum; inconclusive = response in the unintended direction; inactive = score below 0.9.

The AC50 is the concentration giving half of the maximal activity seen.

System in one assay: not listed separately
The experiment in a line: ACEA_AR_antagonist_AUC_viability: ACEA Biosciences xCELLigence Real-Time Cell Analysis on Androgen Receptor Antagonism for Viability (AID 2283776).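 Note: 22Rv1 human prostate cancer cells growing on impedance electrode plates; hits lower the growth signal relative to DMSO meaning cytotoxicity.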 Put shortly: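 Impedance read-out (RT-CES): area under growth curve at 80 h post-dose, loss of signal scored vs DMSO baseline. 22Rv1 cells; 8-pt 1:4 series, top 100 uM final, ≤0.5% DMSO; biological duplicate.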
In the case of `NC(=O)Nc1ccc(Cl)cc1`, the result was inactive. Same read-out and setting: the value for `C=C1C2CCC(C2)C1(C)C` (stereo not given) was “inactive”; that for `CCCCNS(=O)(=O)c1ccc(C)cc1` was “inactive”. Regarding `CN(C)c1ccc(N=Nc2ccccc2C(=O)O)cc1`, the AC50 is active: 3.3 µM. For `CCO[Si](CCCN)(OCC)OCC`, the call was inactive. Regarding `CC(C)CCCC(C)(C)O`, the molecule was classed as inactive. Regarding `NC(=O)N(O)[C@@H]1COc2cc(OCc3ccccc3)ccc21`, the AC50 was active: 24.4 µM. For the molecule `CC(=O)OC(C)(C)C`, the outcome was inactive. Same read-out and setting: for `CCC(=O)/C=C/C1C(C)=CCCC1(C)C` (stereo not given) the value was “inactive”. With `C=C(C)C(=O)OCCOC1CC2CC1C1C=CCC21` (stereo not given), the result was inactive. The same measure, in the same setting: for `CCCCCCCCOC(=O)c1ccc(O)cc1` the value was “inactive”; for `CCCCCCCCC`, “inactive”.

Take `CCCCCCOC(=O)c1ccccc1`: the call was inactive.

Consider `CC(C)(C)c1ccc(S)cc1`, for which the outcome was inactive. The same measure, in the same setting: for `CCCCCC1C(=O)CCC1CC(=O)OC` (stereo not given) the value was “inactive”; for `O=CCc1ccccc1`, “inactive”; for `O=C1CCCC1`, “inactive”.

On to `Cc1cc(C)c(C)cc1C`, for which the result was inactive. On the same count and under the same terms, for `CCCCOC(=O)[C@H](C)O` the value was “inactive”. Still for that read-out and setting: for `CCCCCC(C=O)=Cc1ccccc1` the value was “inactive”.

`CCC(C)COC(=O)CC(C)C` (stereo not given): the call was inactive. Still for that read-out and setting: the value for `CCCCNC(=S)NCCCC` was “inactive”. Turning to `Cc1ccc(C(C)(C)C)cc1`, the molecule was called inactive. As for `C=C(C)C(=O)OCCC(C)OC(=O)C(=C)C` (stereo not given), the molecule was called inactive. On the same count and under the same terms, the value for `O=c1c(O)c(-c2ccc(O)cc2O)oc2cc(O)cc(O)c12` was “inactive”. On the same count and under the same terms, for `[O-]/[N+](=N\O)c1ccccc1` the value was “inactive”.

The next assay has as its system Sodium/Iodide Symporter (NIS), SLC5A5 (gene 6528). The experiment in a line: CPHEA_Stoker_NIS_Inhibition_RAIU: CPHEA's Radioactive Iodide Uptake (RAIU) Assay for Sodium/Iodide Symporter (NIS) Inhibition, Stoker and Laws Labs (AID 2283841). Put shortly: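 Iodide uptake read as CPM of intracellular 125I (final 329 pM) after 2 h room-temperature exposure in HEPES-buffered HBSS, pH 7.4. Human NIS-expressing HEK293T cells; six concentrations 0.001–100 uM, 0.5% DMSO, normalised to DMSO wells.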
`CCCCCCCC/C=C\CCCCCCCC(=O)N(C)CC(=O)O`: the outcome was inactive. Same read-out and setting: for `CC(C)=CCC[C@](C)(O)[C@@H]1CC=C(C)CC1` the value was “inactive”; for `C1CN(SSN2CCOCC2)CCO1`, “inactive”. Same read-out and setting: the value for `O=CCc1ccccc1` was “inactive”.
